# Measured values published in patent publication US4228285A, “14-Hydroxy-6-oxamorphinans and 14-hydroxy-6-oxaisomorphinans” (priority 1979, dated 1980).
# Columns and labels:
# [1] = assay type: in vivo; details: subcutaneous
# [2] = assay type: in vivo
smiles,measurement,setting,value
"CN1CC[C@]23c4c5ccc(O)c4O[C@H]2[C@@H](O)C=C[C@H]3[C@H]1C5.O=S(=O)(O)O [morphine sulfate, reference compound]","Agonist Activity ED50, Rats (SC)",[1],0.16 mg/kg
same,"Agonist Activity ED50, Mice (PO)",[2]; oral,3.1 mg/kg
same,"Agonist Activity ED50, Mice (SC)",[2]; subcutaneous,0.26 mg/kg
